This note sets out measurements from article PMC7545708, “The small molecule PSSM0332 disassociates the CRL4A^DCAF8 E3 ligase complex to decrease the ubiquitination of NcoR1 and inhibit the inflammatory response in a mouse sepsis-induced myocardial dysfunction model” (International Journal of Biological Sciences, 2020).

The chains behind the UniProt entries cited, without tags or fusion partners.
UniProt Q3U1J4: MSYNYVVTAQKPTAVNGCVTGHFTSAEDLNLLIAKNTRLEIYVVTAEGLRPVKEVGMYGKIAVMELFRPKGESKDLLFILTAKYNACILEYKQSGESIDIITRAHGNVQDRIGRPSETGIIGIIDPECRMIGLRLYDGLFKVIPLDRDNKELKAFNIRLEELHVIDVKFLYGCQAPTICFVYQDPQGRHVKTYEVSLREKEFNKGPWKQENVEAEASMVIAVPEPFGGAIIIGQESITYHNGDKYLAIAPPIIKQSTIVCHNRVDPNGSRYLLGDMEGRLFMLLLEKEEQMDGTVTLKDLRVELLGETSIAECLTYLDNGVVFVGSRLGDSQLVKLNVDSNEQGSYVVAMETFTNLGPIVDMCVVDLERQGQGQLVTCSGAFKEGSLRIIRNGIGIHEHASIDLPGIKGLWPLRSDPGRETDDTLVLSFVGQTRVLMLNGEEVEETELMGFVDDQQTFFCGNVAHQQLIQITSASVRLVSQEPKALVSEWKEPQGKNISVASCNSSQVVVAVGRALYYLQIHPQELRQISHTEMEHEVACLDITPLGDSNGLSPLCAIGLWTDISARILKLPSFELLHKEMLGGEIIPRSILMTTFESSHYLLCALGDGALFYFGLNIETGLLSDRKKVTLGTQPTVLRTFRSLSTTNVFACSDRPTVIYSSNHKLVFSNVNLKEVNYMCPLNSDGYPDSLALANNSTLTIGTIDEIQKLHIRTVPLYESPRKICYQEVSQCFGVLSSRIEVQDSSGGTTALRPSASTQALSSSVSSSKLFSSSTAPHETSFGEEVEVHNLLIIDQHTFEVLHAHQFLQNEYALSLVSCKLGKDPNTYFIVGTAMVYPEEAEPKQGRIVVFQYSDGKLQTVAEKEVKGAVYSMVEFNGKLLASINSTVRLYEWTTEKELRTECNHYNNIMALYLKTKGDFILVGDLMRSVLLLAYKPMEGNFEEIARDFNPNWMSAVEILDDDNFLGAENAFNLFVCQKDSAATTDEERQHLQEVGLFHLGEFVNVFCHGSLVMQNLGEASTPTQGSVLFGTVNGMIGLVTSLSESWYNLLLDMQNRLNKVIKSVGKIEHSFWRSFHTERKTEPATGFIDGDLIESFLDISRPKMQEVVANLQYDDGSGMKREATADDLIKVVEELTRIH
UniProt Q8N7N5: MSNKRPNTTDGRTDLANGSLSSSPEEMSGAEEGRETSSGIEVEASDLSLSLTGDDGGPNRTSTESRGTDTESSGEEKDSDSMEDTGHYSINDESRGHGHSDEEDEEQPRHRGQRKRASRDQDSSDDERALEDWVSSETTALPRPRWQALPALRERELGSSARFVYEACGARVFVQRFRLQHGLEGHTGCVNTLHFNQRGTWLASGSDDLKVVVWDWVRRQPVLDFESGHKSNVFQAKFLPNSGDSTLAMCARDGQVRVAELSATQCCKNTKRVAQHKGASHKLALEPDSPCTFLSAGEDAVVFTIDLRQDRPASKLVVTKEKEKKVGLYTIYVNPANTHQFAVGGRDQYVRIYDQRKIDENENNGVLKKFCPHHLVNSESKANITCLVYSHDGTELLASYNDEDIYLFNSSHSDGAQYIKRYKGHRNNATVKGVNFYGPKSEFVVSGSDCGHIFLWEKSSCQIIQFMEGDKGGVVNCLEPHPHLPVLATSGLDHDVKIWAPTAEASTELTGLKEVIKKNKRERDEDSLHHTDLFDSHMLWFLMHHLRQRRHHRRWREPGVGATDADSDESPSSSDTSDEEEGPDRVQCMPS
UniProt Q60974: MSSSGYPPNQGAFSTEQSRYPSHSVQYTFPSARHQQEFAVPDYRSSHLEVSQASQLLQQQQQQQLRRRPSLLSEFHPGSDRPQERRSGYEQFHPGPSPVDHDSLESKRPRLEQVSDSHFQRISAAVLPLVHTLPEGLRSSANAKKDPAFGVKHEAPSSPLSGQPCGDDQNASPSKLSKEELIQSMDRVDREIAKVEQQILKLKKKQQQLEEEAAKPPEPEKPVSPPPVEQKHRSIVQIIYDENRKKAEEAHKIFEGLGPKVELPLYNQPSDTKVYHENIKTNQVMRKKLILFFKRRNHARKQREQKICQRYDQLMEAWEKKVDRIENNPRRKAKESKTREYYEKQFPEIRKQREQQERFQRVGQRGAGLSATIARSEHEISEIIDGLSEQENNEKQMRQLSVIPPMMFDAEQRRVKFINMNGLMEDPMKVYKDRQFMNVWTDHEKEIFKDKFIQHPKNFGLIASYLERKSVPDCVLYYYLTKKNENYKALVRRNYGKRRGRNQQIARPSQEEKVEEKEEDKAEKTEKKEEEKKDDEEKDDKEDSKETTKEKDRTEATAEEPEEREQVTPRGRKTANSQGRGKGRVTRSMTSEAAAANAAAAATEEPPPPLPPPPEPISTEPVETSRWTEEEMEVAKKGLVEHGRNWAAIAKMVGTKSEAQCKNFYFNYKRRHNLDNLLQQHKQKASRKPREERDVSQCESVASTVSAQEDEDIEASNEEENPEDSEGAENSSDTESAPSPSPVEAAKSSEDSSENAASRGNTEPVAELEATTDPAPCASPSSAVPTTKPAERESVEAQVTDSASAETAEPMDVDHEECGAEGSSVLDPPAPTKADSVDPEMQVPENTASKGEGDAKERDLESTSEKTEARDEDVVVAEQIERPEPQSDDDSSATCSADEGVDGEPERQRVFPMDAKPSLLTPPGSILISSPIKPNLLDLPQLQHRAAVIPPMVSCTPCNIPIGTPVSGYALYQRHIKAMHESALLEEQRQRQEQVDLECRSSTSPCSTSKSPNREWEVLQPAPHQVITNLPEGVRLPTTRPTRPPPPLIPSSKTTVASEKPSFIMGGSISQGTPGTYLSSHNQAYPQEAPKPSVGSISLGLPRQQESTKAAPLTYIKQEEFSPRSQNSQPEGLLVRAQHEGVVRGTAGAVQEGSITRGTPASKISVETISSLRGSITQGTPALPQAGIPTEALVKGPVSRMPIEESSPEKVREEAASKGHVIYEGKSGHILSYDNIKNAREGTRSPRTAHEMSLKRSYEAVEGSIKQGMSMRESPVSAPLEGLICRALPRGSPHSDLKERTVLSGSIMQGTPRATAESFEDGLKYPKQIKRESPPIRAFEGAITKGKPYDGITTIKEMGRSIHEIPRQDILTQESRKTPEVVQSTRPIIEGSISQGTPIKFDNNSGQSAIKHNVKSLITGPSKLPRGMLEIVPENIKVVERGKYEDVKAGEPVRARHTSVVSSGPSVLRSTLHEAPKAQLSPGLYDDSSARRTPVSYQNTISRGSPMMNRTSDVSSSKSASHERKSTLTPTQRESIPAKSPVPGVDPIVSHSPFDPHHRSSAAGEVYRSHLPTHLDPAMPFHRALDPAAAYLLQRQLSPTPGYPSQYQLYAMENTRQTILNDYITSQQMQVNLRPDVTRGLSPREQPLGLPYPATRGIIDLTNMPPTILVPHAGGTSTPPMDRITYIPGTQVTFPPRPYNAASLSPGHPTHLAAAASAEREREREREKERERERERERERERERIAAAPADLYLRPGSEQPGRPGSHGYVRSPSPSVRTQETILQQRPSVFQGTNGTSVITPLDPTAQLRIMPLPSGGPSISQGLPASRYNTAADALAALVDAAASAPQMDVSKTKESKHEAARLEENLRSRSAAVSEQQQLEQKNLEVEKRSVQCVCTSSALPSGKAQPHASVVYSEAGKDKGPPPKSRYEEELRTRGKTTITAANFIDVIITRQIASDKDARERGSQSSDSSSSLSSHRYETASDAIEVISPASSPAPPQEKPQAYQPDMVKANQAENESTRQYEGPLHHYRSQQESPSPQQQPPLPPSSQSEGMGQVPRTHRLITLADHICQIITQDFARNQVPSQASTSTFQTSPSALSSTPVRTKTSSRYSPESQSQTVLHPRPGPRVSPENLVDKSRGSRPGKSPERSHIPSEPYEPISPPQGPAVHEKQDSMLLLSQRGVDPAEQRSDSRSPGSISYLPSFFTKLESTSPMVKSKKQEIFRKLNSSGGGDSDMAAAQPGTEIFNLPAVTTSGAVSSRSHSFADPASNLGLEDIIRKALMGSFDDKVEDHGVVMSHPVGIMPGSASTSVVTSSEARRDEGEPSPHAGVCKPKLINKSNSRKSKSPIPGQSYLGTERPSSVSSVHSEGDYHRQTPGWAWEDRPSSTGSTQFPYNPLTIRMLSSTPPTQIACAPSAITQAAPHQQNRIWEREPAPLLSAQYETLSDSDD

Test [1] concerns the target DDB1 (DNA damage-binding protein 1), endogenous in mouse heart tissue (mouse (endogenous in heart tissue)) (UniProt Q3U1J4). Nature of the test: affinity purification with mass spectrometry; SIMD mouse heart tissues (n=3, mixed) in RIPA buffer; IP with anti-DDB1 or anti-DCAF8 coupled protein A beads; SDS-PAGE, silver stain, bands cut, trypsin, mass spectrometry.
Test [2] concerns the target DCAF8 (DDB1 and CUL4 associated factor 8), endogenous in mouse heart tissue (mouse (endogenous in heart tissue)) (UniProt Q8N7N5). The test is described as above.

These are yes or no findings as the source states them, for the method shown. Binding seen in cells or lysates may run through a third protein. Here binding means that the protein was enriched with, or labelled near, the bait; the list need not be complete.

Consider “DCAF8 (DDB1 and CUL4 associated factor 8), endogenous in mouse heart tissue (from UniProt Q8N7N5 1-591)”, for which, in test [1], the binding result is recorded as “binds”.

For “NcoR1 (nuclear receptor corepressor 1), endogenous in mouse heart tissue (from UniProt Q60974 1-2453)”, the binding entry in test [2] is given as “binds”.
